# From publication PMC5996148
# “And” between values parts separate entries of the source, which are not always exact repeats. Equal entries are not always repeated. This is one part of the list. For some of these results: The source does not settle which construct or isoform was used.
# How the values were obtained:
# Test in all cases: protein microarray (ProtoArray v5.0), streptavidin-Alexa Fluor 647
# Details in all cases: 3'-biotin; 20 mM Tris (pH 7.5), 5 mM MgCl2, 100 mM KCl, 0.1% Tween-20, A/T-rich and random oligonucleotide blockers; temperature not stated; high values mean tight binding
# [1] = system: MAP kinase-activated protein kinase 3 (human)
# MAP3K7IP1 (human) = system: MAP3K7IP1 (human)
# MAP3K8 (human) = system: MAP3K8 (human)
# MAP4 (human) = system: MAP4 (human)
# MAPK11 (human) = system: MAPK11 (human)
# MAPK6 (human) = system: MAPK6 (human)
# MAPK7 (human) = system: MAPK7 (human)
# MAPK8IP2 (human) = system: MAPK8IP2 (human)
# MAPK9 (human) = system: MAPK9 (human)
# MAPKAPK5 = target: T1, MAPKAPK5 (UniProt Q8IW41)
# T1 sequence: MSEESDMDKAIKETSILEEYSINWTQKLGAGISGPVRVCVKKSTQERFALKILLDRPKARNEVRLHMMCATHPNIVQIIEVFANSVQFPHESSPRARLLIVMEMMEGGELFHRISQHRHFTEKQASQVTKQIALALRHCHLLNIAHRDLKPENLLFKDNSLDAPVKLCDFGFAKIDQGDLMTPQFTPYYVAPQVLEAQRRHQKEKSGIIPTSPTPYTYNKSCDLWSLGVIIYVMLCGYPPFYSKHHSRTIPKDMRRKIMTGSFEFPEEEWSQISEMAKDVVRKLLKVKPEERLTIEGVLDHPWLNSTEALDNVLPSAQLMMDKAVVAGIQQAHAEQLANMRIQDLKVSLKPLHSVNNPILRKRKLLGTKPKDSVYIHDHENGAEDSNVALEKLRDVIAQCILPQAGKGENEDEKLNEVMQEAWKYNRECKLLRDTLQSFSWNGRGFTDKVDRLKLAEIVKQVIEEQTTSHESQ
sequence,measurement,setting,value
GGGAGGCTGAGGCAGG [G4-1 biotinylated (PQS2)],binding signal,[1],6.6 z-score
same,binding signal,MAP3K7IP1 (human),-0.32 z-score
same,binding signal,MAP3K8 (human),-0.325 z-score
same,binding signal,MAP4 (human),-0.339 z-score
same,binding signal,MAPK11 (human),-0.302 z-score
same,binding signal,MAPK6 (human),-0.347 z-score
same,binding signal,MAPK7 (human),-0.256 z-score
same,binding signal,MAPK8IP2 (human),-0.34 z-score
same,binding signal,MAPK9 (human),-0.347 z-score and -0.297 z-score
same,binding signal,MAPKAPK5,6.58 z-score

# Looked up one by one from above, 2 records:
sequence,measurement,setting,value
GGGAGGCTGAGGCAGG [G4-1 biotinylated (PQS2)],binding signal,MAPK8IP2 (human),-0.34 z-score
same,binding signal,MAP4 (human),-0.339 z-score
